Results on three substances are retold here after publication PMC4549284.

Amino acid sequences for entries named in this document (tags omitted).
UniProt Q01959: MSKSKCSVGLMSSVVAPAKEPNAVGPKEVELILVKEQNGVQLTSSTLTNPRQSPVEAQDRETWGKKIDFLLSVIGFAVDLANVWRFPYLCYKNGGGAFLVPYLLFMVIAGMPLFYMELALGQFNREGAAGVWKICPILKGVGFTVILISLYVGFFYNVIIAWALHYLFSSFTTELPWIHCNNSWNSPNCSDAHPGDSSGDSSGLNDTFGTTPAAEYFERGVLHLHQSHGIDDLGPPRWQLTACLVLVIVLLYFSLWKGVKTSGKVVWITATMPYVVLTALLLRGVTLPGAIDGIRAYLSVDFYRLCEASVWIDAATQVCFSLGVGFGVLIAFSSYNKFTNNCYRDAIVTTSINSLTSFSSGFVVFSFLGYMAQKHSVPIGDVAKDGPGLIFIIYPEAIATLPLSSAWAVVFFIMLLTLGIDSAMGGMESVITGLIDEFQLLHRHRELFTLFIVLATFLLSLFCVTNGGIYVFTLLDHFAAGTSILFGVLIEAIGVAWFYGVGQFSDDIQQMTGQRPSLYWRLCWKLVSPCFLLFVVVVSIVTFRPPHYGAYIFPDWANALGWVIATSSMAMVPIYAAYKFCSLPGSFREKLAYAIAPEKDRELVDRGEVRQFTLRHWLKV
UniProt P23977: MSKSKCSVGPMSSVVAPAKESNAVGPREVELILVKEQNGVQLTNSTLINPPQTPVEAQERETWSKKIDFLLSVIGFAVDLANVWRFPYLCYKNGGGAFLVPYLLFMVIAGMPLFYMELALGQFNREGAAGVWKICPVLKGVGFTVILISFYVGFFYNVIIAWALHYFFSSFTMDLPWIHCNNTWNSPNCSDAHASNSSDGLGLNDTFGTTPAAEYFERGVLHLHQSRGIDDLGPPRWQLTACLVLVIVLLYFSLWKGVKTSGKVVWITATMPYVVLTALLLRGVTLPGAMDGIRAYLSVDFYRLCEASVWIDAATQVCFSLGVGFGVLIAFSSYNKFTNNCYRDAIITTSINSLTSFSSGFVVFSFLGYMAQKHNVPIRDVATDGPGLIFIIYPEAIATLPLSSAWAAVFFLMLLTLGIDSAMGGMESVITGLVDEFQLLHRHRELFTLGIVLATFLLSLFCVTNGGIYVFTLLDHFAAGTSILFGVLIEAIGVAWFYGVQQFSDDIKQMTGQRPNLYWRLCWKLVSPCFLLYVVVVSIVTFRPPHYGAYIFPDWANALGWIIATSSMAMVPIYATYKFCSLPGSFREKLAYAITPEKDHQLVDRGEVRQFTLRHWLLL

The target in test [1] is dopamine transporter (DAT) (human) (UniProt Q01959). As to the kind of experiment: co-IP; reverse: lysate (500 μg) of HEK-293T cells co-expressing DAT and DJ-1; 2 μg DAT antibodies, rat IgG as control; blot for DJ-1.
Test [2] has as its target DJ-1 (wild type) (human) (UniProt Q99497). The test can be described thus: co-IP; competition: lysate (500 μg) of HEK-293T cells co-transfected with DAT, DJ-1 and either pcDNA3 or the DJ-1,3A mini-gene; co-immunoprecipitation of DAT with DJ-1, quantified (n = 7).
The target is the same in test [3]. As to the kind of experiment: co-IP; lysate (500 μg) of HEK-293T cells co-transfected with DAT and DJ-1; 2 μg anti-DJ-1 antibody on protein A/G agarose, overnight 4°C, modified RIPA buffer; blot for DAT.
Test [4] concerns the target GST-DJ-1,3 (T108-D189) (human) (UniProt Q99497). The test can be described thus: pull-down; 50 μg GST fusion protein incubated with 500–750 μg extract of HEK-293T cells transfected with DAT, overnight 4°C; glutathione-agarose beads; washes PBS with 0.05–0.1% Triton X-100; blot for DAT; only the target purified.
Test [5] deals with GST-DJ-1,3B [E176-D189] (human) (UniProt Q99497). The test is described as above.
Test [6] has as its target GST-DJ-1,3A [S161-K175] (human) (UniProt Q99497). The test is described as above.
Test [7] has as its target T1, DJ-1, rat striatum (rat (endogenous in striatum)) (UniProt O88767).
T1 sequence: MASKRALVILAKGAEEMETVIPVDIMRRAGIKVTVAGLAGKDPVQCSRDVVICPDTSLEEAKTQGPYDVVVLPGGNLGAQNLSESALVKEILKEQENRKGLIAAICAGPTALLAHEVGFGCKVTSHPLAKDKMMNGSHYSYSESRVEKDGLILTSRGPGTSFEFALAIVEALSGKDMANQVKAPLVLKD
The test can be described thus: co-IP; solubilized rat striatal tissue (750 μg), modified RIPA buffer; immunoprecipitated with DJ-1 antibody; blot for DAT.

Results are given in words; binding and its absence hold for the method and conditions named. In cells and extracts the contact can be indirect. Some binding calls cover weakened binding; strength is not graded here.

In the case of “DJ-1 (wild type) (from UniProt Q99497 1-189)”, the binding entry in test [1] is given as “binds”.
Consider “dopamine transporter (DAT) (from UniProt Q01959 1-620)”, for which the binding result in test [2] is reported as “binds”; in test [3], “binds”; in test [4] it was “binds”; in test [5], “no binding (tested: 50 μg of GST fusion protein)”; in test [6], “binds”.
On to “dopamine transporter (DAT), rat striatum (from UniProt P23977 1-619)”, for which the binding entry in test [7] was “binds”.
